The nature of the series: general procedure: Boc solid-phase peptide synthesis; benzhydrylamine resin (BHR) or chloromethyl/Merrifield resin (CMR). The settings on record: late stage modification step.

Strings that start with PEPTIDE1 are HELM notation: dots part the residues, brackets hold end groups and non-standard residues.

Substance “PEPTIDE1{[Pmp].[D-Tyr(I)].F.V.N.C.P.R.G.[am]}$PEPTIDE1,PEPTIDE1,1:R3-6:R3$$$V2.0” came in with a step yield of 65%.

These data come from patent US4469680A (SmithKline Beckman Corporation, priority 1983, dated 1984).
